# Experimental data from publication PMC7819943, “Rice protein-binding microarrays: a tool to detect cis-acting elements near promoter regions in rice”.
# Chains of the proteins cited; added tags and fusions are not shown.
# UniProt Q0JBA9, entry or part of it: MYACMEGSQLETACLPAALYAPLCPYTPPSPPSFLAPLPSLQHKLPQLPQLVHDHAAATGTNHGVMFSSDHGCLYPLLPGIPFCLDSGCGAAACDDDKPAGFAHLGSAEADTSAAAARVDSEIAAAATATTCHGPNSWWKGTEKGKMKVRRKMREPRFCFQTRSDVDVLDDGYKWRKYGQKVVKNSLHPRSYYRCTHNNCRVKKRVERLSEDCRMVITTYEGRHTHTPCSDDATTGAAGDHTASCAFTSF
# The other results are listed elsewhere or left out.
# Molecular target: OsWRKY34 (Oryza sativa, UniProt Q0JBA9 1-250)
# Assay: protein-binding microarray (RPBM); PBS, 2% BSA, 51.3 ng/ul salmon testes DNA, 50 uM zinc acetate, 200 nM TF, 25 C, 1 h; high values mean tight binding
# Conditions: protein: recombinant; tags: N-terminal polyhistidine and DsRed monomer fusion (pET32a); label: CyDye5-dUTP incorporated in the synthesized complementary strand; 3' TTTTT single-stranded linker to array surface; dsDNA, one strand shown
# Procedure, shortened: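 A custom Agilent array was converted to double-stranded form by primer extension with Cy5-dUTP and blocked with 2% BSA. Protein at 200 nM in PBS with 2% BSA, salmon testes DNA and 50 µM zinc acetate was applied for 1 h at 25 °C, followed by washing. The proteins were polyhistidine–DsRed N-terminal fusions of transcription factors, expressed in E. coli BL21-CodonPlus and Ni–NTA-purified. The binding signal is per-feature fluorescence intensity (arbitrary units) from an Axon 4000B scanner.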
row,Sequence,binding signal
1,TGTGGGTGGTGGCTCTAGGGTTTAACAAGACGTCGTCTGTCGGAGTCACCTAGTGCAG,8130 fluorescence intensity (a.u.)
2,CTATTGTCGTGCGTGTGACCACTATTAAGCAGCATGCCGACGGAGTCACCTAGTGCAG,8280 fluorescence intensity (a.u.)
3,CTCGTTATTTTCTTCTTGATCCATCAGTGTCTAGAATATTCGGAGTCACCTAGTGCAG,8430 fluorescence intensity (a.u.)
4,ACTACTCTCGTACTGTACTACTGTGGCGTGGCTATCTACTCGGAGTCACCTAGTGCAG,8530 fluorescence intensity (a.u.)
5,ATTACAGTAATAATTCCCGCGTTTTTAATTCTTCTTCTTTCGGAGTCACCTAGTGCAG,9480 fluorescence intensity (a.u.)
6,ACAGAGGGAGTCATTTTGTGTTGTTTTAATAGTTAGAGGGCGGAGTCACCTAGTGCAG,8200 fluorescence intensity (a.u.)
7,TTTGTGTAGTGTATCATATTTGGAGTTCTGCTGTTCCACTCGGAGTCACCTAGTGCAG,11200 fluorescence intensity (a.u.)
8,CTCCTGTCTGCTAGACACGATTCTGCACCATATGTACATCCGGAGTCACCTAGTGCAG,9670 fluorescence intensity (a.u.)
9,CTCCGCCGCGCTCGTGGGGTTTAGGGTTTTAAGGTGGAGGCGGAGTCACCTAGTGCAG,8130 fluorescence intensity (a.u.)
10,GGAATCGAGGTGGACTTTTTCCTATTTTTGGCCCAGAACTCGGAGTCACCTAGTGCAG,11500 fluorescence intensity (a.u.)
11,AACTTTCTCAACTTCTACTCTTTCGTTTTTCATACGCACGCGGAGTCACCTAGTGCAG,11000 fluorescence intensity (a.u.)
12,CCGTCTCTTTTCAGATTATTCATTGGATTATGTGCTATATCGGAGTCACCTAGTGCAG,8170 fluorescence intensity (a.u.)
13,GCAATCTGCGCGGGCCACTATGCTTGTTATAATCTATTTCCGGAGTCACCTAGTGCAG,8200 fluorescence intensity (a.u.)
14,ACCCGTTGTTTTTGTTTTACCTGTGCTACGGTCAAAATGTCGGAGTCACCTAGTGCAG,10300 fluorescence intensity (a.u.)
15,ACCAGGGGAGGGGACAGCACACACTATCCATTCCAGTGCCCGGAGTCACCTAGTGCAG,12800 fluorescence intensity (a.u.)
16,ATATTGCCCATCACCACCACCCACTGCAACCGGCTGTTAACGGAGTCACCTAGTGCAG,8370 fluorescence intensity (a.u.)
17,CTAGTTCACCTGTCTTTATCAGTTTGCGTTGTGTCATCCGCGGAGTCACCTAGTGCAG,11700 fluorescence intensity (a.u.)
18,ACCGTTGGTTTCCATCTCTTCGAGCGTGTGTTAGGGGCATCGGAGTCACCTAGTGCAG,9650 fluorescence intensity (a.u.)
19,CGTTTTCCGCGCTCACACTTTTCAAACTACTAAACGGTGTCGGAGTCACCTAGTGCAG,9380 fluorescence intensity (a.u.)
20,TCCCCGCGGGCATGCCCGTTGCTGCGGGCGCAGCTCAATTCGGAGTCACCTAGTGCAG,8280 fluorescence intensity (a.u.)
21,GGTTCGTTCGTTCCTCCCGCGGCGACGGGGTGGGGCACACCGGAGTCACCTAGTGCAG,8930 fluorescence intensity (a.u.)

# In another format: entries from further up.
row | Sequence | binding signal
1 | TGTGGGTGGTGGCTCTAGGGTTTAACAAGACGTCGTCTGTCGGAGTCACCTAGTGCAG | 8130 fluorescence intensity (a.u.)
7 | TTTGTGTAGTGTATCATATTTGGAGTTCTGCTGTTCCACTCGGAGTCACCTAGTGCAG | 11200 fluorescence intensity (a.u.)
13 | GCAATCTGCGCGGGCCACTATGCTTGTTATAATCTATTTCCGGAGTCACCTAGTGCAG | 8200 fluorescence intensity (a.u.)
14 | ACCCGTTGTTTTTGTTTTACCTGTGCTACGGTCAAAATGTCGGAGTCACCTAGTGCAG | 10300 fluorescence intensity (a.u.)

# (listing goes on)

row,Sequence,binding signal
1,TCCTTGACAGTTCTTGCATTGTATGTGTCAGCTCATGTGTCGGAGTCACCTAGTGCAG,11600 fluorescence intensity (a.u.)
2,GAGTTTTTGTTTATATTATTTGATCACTCGTCTTATTTAACGGAGTCACCTAGTGCAG,10500 fluorescence intensity (a.u.)
3,TGGGAGCTTTGCTTGGGGTGTGTGTGTGTTTGGGTGGTGCCGGAGTCACCTAGTGCAG,10900 fluorescence intensity (a.u.)
4,TGTTCTACCTTTTAGCAGGTTTGTTTGAGCCTGTATACATCGGAGTCACCTAGTGCAG,8090 fluorescence intensity (a.u.)
5,AATTGATCGCGGGCACGAGATGCGTCTCGTCGTCGTATTTCGGAGTCACCTAGTGCAG,8280 fluorescence intensity (a.u.)
6,ATAGCTCACCTTGTTTTACGTATCTTCTTAAACTTCTCTTCGGAGTCACCTAGTGCAG,10800 fluorescence intensity (a.u.)
7,ACTAGAATGCTATTATTATGTTTAGGTATGTATGTTATATCGGAGTCACCTAGTGCAG,8200 fluorescence intensity (a.u.)
8,TTCCTCTCTCCATGTGTGTTCAACAGAGCATGCTTCTCATCGGAGTCACCTAGTGCAG,8400 fluorescence intensity (a.u.)
9,TTTCCATCCGTTTTCGAGCCGTTTTCATCCCTATTTGGTACGGAGTCACCTAGTGCAG,9000 fluorescence intensity (a.u.)
10,CCTAAACACCAAGGCACTCTCTAGGCAAGCATCCCACCTTCGGAGTCACCTAGTGCAG,8210 fluorescence intensity (a.u.)
11,TCGTCGTCGTCTCGTCGTTTCCACAATCAATTTGACGTCGCGGAGTCACCTAGTGCAG,8130 fluorescence intensity (a.u.)
12,TATCGTCATACCACTTATTGTGCTTCTTGTAAGTGTCACACGGAGTCACCTAGTGCAG,10500 fluorescence intensity (a.u.)
13,CTGCTATTTCTTCGCTTGTTTCTCATGCGTGTTTACAAGACGGAGTCACCTAGTGCAG,8740 fluorescence intensity (a.u.)
14,AAATTCCAACTCCGTATAGTATCAAGTACAGCAATTTCTACGGAGTCACCTAGTGCAG,8300 fluorescence intensity (a.u.)
15,TGTTCCTTTCTTTTCTGTCACATTATGTGCACAATATTTTCGGAGTCACCTAGTGCAG,10500 fluorescence intensity (a.u.)
16,CCGGTCTCTGTCTTTTTAGCGTGTATTAGACGGCTCACTCCGGAGTCACCTAGTGCAG,9350 fluorescence intensity (a.u.)
17,TCCACGTTCACTTATCAGCCCCAACGTCTTAGCTTCCGATCGGAGTCACCTAGTGCAG,9260 fluorescence intensity (a.u.)
18,TTAACCCTTACGGGTTTTTGCTAGGCTCCTTTTTTTTTTACGGAGTCACCTAGTGCAG,9610 fluorescence intensity (a.u.)
19,CTAGTATAACGGTGATCTCTCCTAGGTTGCTTTTTTTTTTCGGAGTCACCTAGTGCAG,12300 fluorescence intensity (a.u.)
20,CCCGACGACTTGACCCGTTGACCAATAAGACACCTTGAAGCGGAGTCACCTAGTGCAG,14400 fluorescence intensity (a.u.)
21,GGTAATGATATATTGGTTTATTTGTCTTCTTACCTGCCAACGGAGTCACCTAGTGCAG,9910 fluorescence intensity (a.u.)

row,Sequence,binding signal
1,TCTCGTATCTGCCCCATTAATCAATTCCCACGGCCGTACTCGGAGTCACCTAGTGCAG,10800 fluorescence intensity (a.u.)
2,AACAGAAGAGTAGTTGACTTTAGCCACACTCCGAAGCTATCGGAGTCACCTAGTGCAG,8390 fluorescence intensity (a.u.)
3,CAATCCGAACCGTTTCGCGCCATCCGATCGAGGCCGCCACCGGAGTCACCTAGTGCAG,9050 fluorescence intensity (a.u.)
4,GTTTGTCGTAGTAGTTTATTTTTGACACCGGCTTTCAAATCGGAGTCACCTAGTGCAG,9880 fluorescence intensity (a.u.)
5,CCAAGCCACCACGCCACCCAAACCGCGATTTCTGATCGATCGGAGTCACCTAGTGCAG,8300 fluorescence intensity (a.u.)
6,CGCTCGTCCCCATTGTTGTCGTTGCTAGTGGTCATTAAAACGGAGTCACCTAGTGCAG,8730 fluorescence intensity (a.u.)
7,TCCGCTACCAACCGCTTCCTTTTCCTTCTGCTGCTGCTGCCGGAGTCACCTAGTGCAG,9080 fluorescence intensity (a.u.)
8,CTTCACAACTCACCGAATCTACGGTTCAGATTGCTCGCAACGGAGTCACCTAGTGCAG,8850 fluorescence intensity (a.u.)
9,TGTGAATGGATTAGGGTGGTTGATGCCATACTACGGCCGCCGGAGTCACCTAGTGCAG,8700 fluorescence intensity (a.u.)
10,AAACAACTTACAATTCATCCAAGTTCTTTCCATCTGTTACCGGAGTCACCTAGTGCAG,10500 fluorescence intensity (a.u.)
11,TGTGGGTGGGGTTATTTTTTCTTCGTTTTCCTATTTACGACGGAGTCACCTAGTGCAG,15700 fluorescence intensity (a.u.)
12,TCGTTCTCGATCTAGCCAGCTCATCAATCTTTTTTTCTCTCGGAGTCACCTAGTGCAG,10300 fluorescence intensity (a.u.)
13,AATTGTCTTTGATCTCTCCCATTTCCATTTGCCTAATCCACGGAGTCACCTAGTGCAG,9080 fluorescence intensity (a.u.)
14,CTGGGTTTTATCATATCTGACCGTATGAGTAGTTGGCATTCGGAGTCACCTAGTGCAG,8410 fluorescence intensity (a.u.)
15,CACCACTCCATCTCCTTAATTGCACTTCCATTTCACCTCACGGAGTCACCTAGTGCAG,11200 fluorescence intensity (a.u.)
16,CCCCAATCCACACACCATACATAATTACATACTACCAGCTCGGAGTCACCTAGTGCAG,8420 fluorescence intensity (a.u.)
17,GGACAGAGGGATAAGTGGTTTTAAGGTGATGCATCACATACGGAGTCACCTAGTGCAG,8200 fluorescence intensity (a.u.)
18,CTCCTCCACGTGACCCGCGCCACCACCACCACCACCACCGCGGAGTCACCTAGTGCAG,8920 fluorescence intensity (a.u.)
19,CCTTCACTCTCCTCTCCATCTCGTTTTTTTTTTTCTTTTTCGGAGTCACCTAGTGCAG,8410 fluorescence intensity (a.u.)
20,TCGTCCATACGTTTCTCAATTGTTAAACGGTGTGTTTTTTCGGAGTCACCTAGTGCAG,9140 fluorescence intensity (a.u.)
21,AAGTTATTATAGGCTTATGGCATTCCTTCATTTCTATATTCGGAGTCACCTAGTGCAG,9490 fluorescence intensity (a.u.)

row,Sequence,binding signal
1,GCTCGGTGTGGCGATCTCACAGCCGCATATCGCATTTCACCGGAGTCACCTAGTGCAG,8680 fluorescence intensity (a.u.)
2,TTTTGGGATTTCTCGGGTATATTCTATAGATTTTCATTTTCGGAGTCACCTAGTGCAG,13100 fluorescence intensity (a.u.)
3,TCGACATCTACGCTTATCATTTCTCCCTCTACTATTGCTGCGGAGTCACCTAGTGCAG,8530 fluorescence intensity (a.u.)
4,TTTCGACTCCATTCACCTTTTTAAGCCTTAAGTCATGTTTCGGAGTCACCTAGTGCAG,8600 fluorescence intensity (a.u.)
5,CCCTGTCCCCTTCACGGTTACCTCCTCACTTCACTCTCTTCGGAGTCACCTAGTGCAG,8900 fluorescence intensity (a.u.)
6,CCTGTAACCACATTTCAATATTGAAAAGACTTTTGTTGCTCGGAGTCACCTAGTGCAG,8510 fluorescence intensity (a.u.)
7,CTGTGACAGCAGCAGCCACCGCCCACCGCCGCCGCCGCTTCGGAGTCACCTAGTGCAG,8240 fluorescence intensity (a.u.)
8,TTCTTGGAGATGGTCACCGTTGACTTCCGGCCGGACCTCACGGAGTCACCTAGTGCAG,13700 fluorescence intensity (a.u.)
9,TGAGCCCATTCATTTTTATTCCGGGTGAGGAAGATGGGCCCGGAGTCACCTAGTGCAG,8200 fluorescence intensity (a.u.)
10,CCACCGGCGAGTCCCGCTTGACCGCCACGGCGCCACCCATCGGAGTCACCTAGTGCAG,8390 fluorescence intensity (a.u.)
11,TGGATTGGTCCGGTGATTGCTTGCGTTCTTATACACTAGACGGAGTCACCTAGTGCAG,8140 fluorescence intensity (a.u.)
12,TCCGCCTCCACCTCCGCCGCCCGCCGCCCGCCGCCCGCCGCGGAGTCACCTAGTGCAG,8960 fluorescence intensity (a.u.)
13,GGGGAAGCTAGCAAACAGTACTACTAACCTTCTGCTTATACGGAGTCACCTAGTGCAG,8860 fluorescence intensity (a.u.)
14,TTGCAACTATTATAGTACTGTATACTCCTACTAATTTAACCGGAGTCACCTAGTGCAG,8690 fluorescence intensity (a.u.)
15,GATAGTTGAGGGACGCCGGACAAACTTTTTCCGCTTATTTCGGAGTCACCTAGTGCAG,8120 fluorescence intensity (a.u.)
16,TAGACCTTTTTACGTTGCAACTTACTCTTACTTATATTAACGGAGTCACCTAGTGCAG,10700 fluorescence intensity (a.u.)
17,ACCACGTGTGCGGCCACCTTAAGTCAGCCATATATGAAACCGGAGTCACCTAGTGCAG,8450 fluorescence intensity (a.u.)
18,TAGTCAAAGTCAAACTATTCTAAGTTTGACTAATTATGTACGGAGTCACCTAGTGCAG,12100 fluorescence intensity (a.u.)
19,ACACACACACACACACACACACACACACACATATATATATCGGAGTCACCTAGTGCAG,8300 fluorescence intensity (a.u.)
20,GAACTCGTTACATTGCTCTATGTGTGAAATTTATTTACGTCGGAGTCACCTAGTGCAG,9780 fluorescence intensity (a.u.)
21,ACCCGAAGCTCTCTGCTGCTGCCGCTGCCGCCGCGCCGCGCGGAGTCACCTAGTGCAG,8920 fluorescence intensity (a.u.)
